# No constants are given. Whether binding was seen depends on the method and setting. In cells and extracts the contact can be indirect. Here binding means that the protein was enriched with, or labelled near, the bait; the list need not be complete.
# Sequences of proteins named here, by UniProt entry; tags and fusion partners are left off.
# UniProt Q16611, whole entry: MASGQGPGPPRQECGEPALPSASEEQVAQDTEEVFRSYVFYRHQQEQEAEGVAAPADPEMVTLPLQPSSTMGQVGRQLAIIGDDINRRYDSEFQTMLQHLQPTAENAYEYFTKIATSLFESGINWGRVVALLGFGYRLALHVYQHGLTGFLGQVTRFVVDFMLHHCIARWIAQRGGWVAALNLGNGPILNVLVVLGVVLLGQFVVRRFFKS
# B1: OmpA of Chlamydia trachomatis serovar L2, made by the bacteria during infection of HeLa cells (protein, UniProt P06597 23-394)
# chain: LPVGNPAEPSLMIDGILWEGFGGDPCDPCTTWCDAISMRMGYYGDFVFDRVLQTDVNKEFQMGAKPTTATGNAAAPSTCTARENPAYGRHMQDAEMFTNAAYMALNIWDRFDVFCTLGATSGYLKGNSASFNLVGLFGDNENHATVSDSKLVPNMSLDQSVVELYTDTTFAWSAGARAALWECGCATLGASFQYAQSKPKVEELNVLCNAAEFTINKPKGYVGQEFPLDLKAGTDGVTGTKDASIDYHEWQASLALSYRLNMFTPYIGVKWSRASFDADTIRIAQPKSATTVFDVTTLNPTIAGAGDVKASAEGQLGDTMQIVSLQLNKMKSRKSCGIAVGTTIVDADKYAVTVETRLIDERAAHVNAQFRF
# Biological target: BAK (human (endogenous in HeLa)) (UniProt Q16611)
# Experiment: affinity purification with mass spectrometry
binder,measurement,value
B1,binding,binds
